According to doi:10.1101/2021.10.28.466285:
These are yes or no findings as the source states them, for the method shown. Binding seen in cells or lysates may run through a third protein. Here binding means that the protein was enriched with, or labelled near, the bait; the list need not be complete.

Target: CHD4, endogenous in E10.5 mouse embryonic hearts (mouse (endogenous in E10.5 embryonic hearts)), Q6PDQ2
Assay: affinity purification with mass spectrometry
Conditions: remark: other sources report otherwise

B1: TBX5, endogenous in E10.5 mouse embryonic hearts, P70326 1-518 (protein)
chain: MADTDEGFGLARTPLEPDSKDRSCDSKPESALGAPSKSPSSPQAAFTQQGMEGIKVFLHERELWLKFHEVGTEMIITKAGRRMFPSYKVKVTGLNPKTKYILLMDIVPADDHRYKFADNKWSVTGKAEPAMPGRLYVHPDSPATGAHWMRQLVSFQKLKLTNNHLDPFGHIILNSMHKYQPRLHIVKADENNGFGSKNTAFCTHVFPETAFIAVTSYQNHKITQLKIENNPFAKGFRGSDDLELHRMSRMQSKEYPVVPRSTVRHKVTSNHSPFSSETRALSTSSNLGSQYQCENGVSGPSQDLLPPPNPYPLAQEHSQIYHCTKRKDEECSSTEHPYKKPYMETSPSEEDTFYRSGYPQQQGLSTSYRTESAQRQACMYASSAPPSEPVPSLEDISCNTWPSMPSYSSCTVTTVQPMDRLPYQHFSAHFTSGPLVPRLAGMANHGSPQLGEGMFQHQTSVAHQPVVRQCGPQTGLQSPGGLQPPEFLYTHGVPRTLSPHQYHSVHGVGMVPEWSENS
  binding: binds
